Data: publication PMC12802938
No constants are given. Whether binding was seen depends on the method and setting. Binding seen in cells or lysates may run through a third protein. Here binding means that the protein was enriched with, or labelled near, the bait; the list need not be complete. Tags and fused reporters may be left off the sequences shown.

By UniProt entry, the sequences of proteins in these tests, tags left out.
UniProt A0AVF1: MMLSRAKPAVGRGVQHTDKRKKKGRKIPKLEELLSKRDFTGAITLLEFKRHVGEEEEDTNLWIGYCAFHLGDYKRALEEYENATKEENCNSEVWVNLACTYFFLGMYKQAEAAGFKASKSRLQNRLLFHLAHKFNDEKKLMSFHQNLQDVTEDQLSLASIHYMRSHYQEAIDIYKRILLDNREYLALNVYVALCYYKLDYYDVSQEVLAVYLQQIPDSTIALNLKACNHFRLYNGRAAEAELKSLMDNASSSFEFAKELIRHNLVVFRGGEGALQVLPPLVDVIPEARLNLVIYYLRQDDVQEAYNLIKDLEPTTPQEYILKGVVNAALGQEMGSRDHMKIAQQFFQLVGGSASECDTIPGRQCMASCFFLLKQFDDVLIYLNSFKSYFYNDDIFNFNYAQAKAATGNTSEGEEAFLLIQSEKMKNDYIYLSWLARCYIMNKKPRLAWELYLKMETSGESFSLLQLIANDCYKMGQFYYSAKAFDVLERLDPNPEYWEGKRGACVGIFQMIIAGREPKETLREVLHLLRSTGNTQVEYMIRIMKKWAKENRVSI

Biological target: T1, GFP-tagged CCDC92 (mouse) (UniProt Q8VDN4)
T1 sequence: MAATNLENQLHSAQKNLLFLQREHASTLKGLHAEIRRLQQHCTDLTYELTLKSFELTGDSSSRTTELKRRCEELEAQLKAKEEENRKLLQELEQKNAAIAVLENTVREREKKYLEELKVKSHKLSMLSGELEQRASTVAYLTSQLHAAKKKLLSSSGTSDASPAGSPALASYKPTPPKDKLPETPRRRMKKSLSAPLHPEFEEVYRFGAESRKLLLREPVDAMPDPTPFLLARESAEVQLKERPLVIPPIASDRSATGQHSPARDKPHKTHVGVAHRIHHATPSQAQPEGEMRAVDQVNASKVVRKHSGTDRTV
Experiment: affinity purification with mass spectrometry; GFP-CCDC92 expressed in HEK293T cells, immunoprecipitated with GFP nanobody-coated agarose beads, on-bead digestion; hits compared with a GFP sample

IFT56 (endogenous, HEK293T) (from UniProt A0AVF1 1-554)
binding: binds

B1: IFT81 (endogenous, HEK293T) (protein, UniProt Q8WYA0 1-676)
chain: MSDQIKFIMDSLNKEPFRKNYNLITFDSLEPMQLLQVLSDVLAEIDPKQLVDIREEMPEQTAKRMLSLLGILKYKPSGNATDMSTFRQGLVIGSKPVIYPVLHWLLQRTNELKKRAYLARFLIKLEVPSEFLQDETVADTNKQYEELMEAFKTLHKEYEQLKISGFSTAEIRKDISAMEEEKDQLIKRVEHLKKRVETAQNHQWMLKIARQLRVEKEREEYLAQQKQEQKNQLFHAVQRLQRVQNQLKSMRQAAADAKPESLMKRLEEEIKFNLYMVTEKFPKELENKKKELHFLQKVVSEPAMGHSDLLELESKINEINTEINQLIEKKMMRNEPIEGKLSLYRQQASIISRKKEAKAEELQEAKEKLASLEREASVKRNQTREFDGTEVLKGDEFKRYVNKLRSKSTVFKKKHQIIAELKAEFGLLQRTEELLKQRHENIQQQLQTMEEKKGISGYSYTQEELERVSALKSEVDEMKGRTLDDMSEMVKKLYSLVSEKKSALASVIKELRQLRQKYQELTQECDEKKSQYDSCAAGLESNRSKLEQEVRRLREECLQEESRYHYTNCMIKNLEVQLRRATDEMKAYISSDQQEKRKAIREQYTKNTAEQENLGKKLREKQKVIRESHGPNMKQAKMWRDLEQLMECKKQCFLKQQSQTSIGQVIQEGGEDRLIL
binding: binds

B2: IFT46 (endogenous, HEK293T) (protein, UniProt Q9NQC8 1-304)
chain: MADNSSDECEEENNKEKKKTSQLTPQRGFSENEDDDDDDDDSSETDSDSDDDDEEHGAPLEGAYDPADYEHLPVSAEIKELFQYISRYTPQLIDLDHKLKPFIPDFIPAVGDIDAFLKVPRPDGKPDNLGLLVLDEPSTKQSDPTVLSLWLTENSKQHNITQHMKVKSLEDAEKNPKAIDTWIESISELHRSKPPATVHYTRPMPDIDTLMQEWSPEFEELLGKVSLPTAEIDCSLAEYIDMICAILDIPVYKSRIQSLHLLFSLYSEFKNSQHFKALAEGKKAFTPSSNSTSQAGDMETLTFS
binding: binds
